Assay results: patent US20070060521A1
No constants are given. Whether binding was seen depends on the method and setting. Some binding calls cover weakened binding; strength is not graded here.

Amino acid sequences for entries named in this document (tags omitted). Residues count along the entry.
UniProt P42224, residues 2-750: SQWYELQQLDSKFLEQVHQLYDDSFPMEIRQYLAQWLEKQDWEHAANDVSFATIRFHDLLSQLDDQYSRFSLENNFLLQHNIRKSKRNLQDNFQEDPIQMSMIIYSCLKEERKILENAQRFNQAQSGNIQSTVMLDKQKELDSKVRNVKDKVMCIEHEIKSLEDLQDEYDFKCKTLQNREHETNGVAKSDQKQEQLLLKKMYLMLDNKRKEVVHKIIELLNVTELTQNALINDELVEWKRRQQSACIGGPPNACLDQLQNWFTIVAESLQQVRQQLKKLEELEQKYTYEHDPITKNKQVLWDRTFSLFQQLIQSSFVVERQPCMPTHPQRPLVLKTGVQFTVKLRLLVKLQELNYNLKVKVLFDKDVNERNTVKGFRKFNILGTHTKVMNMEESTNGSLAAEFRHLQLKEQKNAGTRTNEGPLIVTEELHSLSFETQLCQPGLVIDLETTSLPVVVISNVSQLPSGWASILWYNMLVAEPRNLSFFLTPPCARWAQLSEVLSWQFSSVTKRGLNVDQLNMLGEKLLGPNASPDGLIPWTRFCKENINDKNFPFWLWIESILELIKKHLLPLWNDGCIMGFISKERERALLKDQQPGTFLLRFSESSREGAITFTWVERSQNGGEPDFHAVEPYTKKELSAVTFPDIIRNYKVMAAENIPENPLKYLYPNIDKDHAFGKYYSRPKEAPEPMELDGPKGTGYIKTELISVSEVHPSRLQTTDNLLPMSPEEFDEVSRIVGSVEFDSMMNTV

Columns and labels:
[1] = biological target: activated STAT1 in nuclear extracts of human myeloma cells (human) (UniProt P42224); assay: EMSA with antibody supershift, nuclear extracts of U266 cells
[2] = biological target: activated STAT1 in nuclear extracts of human myeloma cells (human) (UniProt P42224); assay: EMSA with antibody supershift, nuclear extracts of patients' bone marrow cells

binding [1]: binds | binding [2]: binds
Substance: activated STAT1 in nuclear extracts of human myeloma cells (from UniProt P42224 2-750)
